Values of other authors, collected in patent US8404710B2, “Phosphodiesterase 10A inhibitor” (Kyorin Pharmaceutical Co., Ltd., priority 2002, dated 2013).
At least one structure is not confirmed: it was looked up by name or label, or the drawing left a doubt.

Test system: patients with Huntington's disease
Conditions: used as a PDE10A modulator; cited from earlier work

CN(C)c1ccc(O)c2c1C[C@H]1C[C@H]3[C@H](N(C)C)C(O)=C(C(N)=O)C(=O)[C@@]3(O)C(O)=C1C2=O [minocycline]
result in patients with Huntington's disease: positive results
